Consider 1 substance from PMC8419706.

Sequences of proteins named here, by UniProt entry; tags and fusion partners are left off.
UniProt Q99961: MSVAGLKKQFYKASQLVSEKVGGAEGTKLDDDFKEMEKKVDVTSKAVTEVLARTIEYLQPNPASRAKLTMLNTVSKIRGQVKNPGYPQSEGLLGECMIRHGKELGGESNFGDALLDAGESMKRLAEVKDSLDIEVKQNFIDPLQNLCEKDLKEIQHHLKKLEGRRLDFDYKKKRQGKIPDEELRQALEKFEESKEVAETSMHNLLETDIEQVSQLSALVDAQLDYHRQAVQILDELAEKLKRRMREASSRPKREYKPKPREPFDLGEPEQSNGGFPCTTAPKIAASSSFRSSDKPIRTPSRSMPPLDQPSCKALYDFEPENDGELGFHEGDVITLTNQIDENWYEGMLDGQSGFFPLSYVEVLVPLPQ
UniProt P62993: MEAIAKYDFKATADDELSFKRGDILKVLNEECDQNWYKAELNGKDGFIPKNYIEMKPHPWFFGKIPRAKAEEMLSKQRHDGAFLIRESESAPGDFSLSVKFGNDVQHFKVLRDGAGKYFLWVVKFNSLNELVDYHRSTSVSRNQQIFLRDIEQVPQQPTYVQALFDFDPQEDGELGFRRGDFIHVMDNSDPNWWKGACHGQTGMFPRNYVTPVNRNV

In the test the target is BioID2-tagged endophilin A2 (SH3GL1-BioID2-HA) (UniProt Q99961). Briefly: proximity labelling; BioID2: stable Ramos cells with SH3GL1-BioID2-HA, anti-IgM-stimulated, 1 uM biotin for 14 h, RIPA lysis, biotinylated proteins pulled down on Dynabeads Streptavidin C1, mass spectrometry (MaxQuant LFQ), compared with the empty-BioID2-HA control; 2 independent experiments.

These are yes or no findings as the source states them, for the method shown. In cells and extracts the contact can be indirect. Here binding means that the protein was enriched with, or labelled near, the bait; the list need not be complete.

As to GRB2 (from UniProt P62993 1-217), the binding entry was “binds”.
